Laboratory results taken from US9340580B2 (priority 2007, dated 2016).
End groups of sequences in plain letters are not given here. Some peptides are written in HELM: one residue between dots, names in brackets for other building blocks, links after the first $. Where no end group is shown, it is not given here.

Assay: general procedure: peptide synthesis; dicyclohexylcarbodiimide and 1-hydroxybenzotriazole
Conditions: whole synthesis

Substance | purity (crude or final not stated) [%]
CIIHRGKPFQLEA | 77.4
DDVVSMEYDLAYK | 84.9
DGLEVDVPGIDPNACH (listed as Dermatophagoides pteronyssinus) | 66.7
DKFERHIGIIDLK | 81.4
DTVRAEMTKVLAP | 69.5
EAVFEANQNTKTAK | 90.3
HDDVVSMEYDLAYKL | 80.9
IDLKGELDMRNIQ | 68.7
IDLRQMRTVTPIR | 79.2
KPFQLEAVFEANQNT | 88.7
KPFQLEAVFEANQNTK | 90.1
LDMRNIQVRGLKQ | 70.3
PEPTIDE1{A.K.I.E.I.K.A.S.L.D.G.L.E}$$$$V2.0 | 65.9
PEPTIDE1{A.N.V.K.S.E.D.G.V.V.K.A.H}$$$$V2.0 | 76.5
PEPTIDE1{D.Q.V.D.V.K.D.C.A.N.H.E.I.K.K}$$$$V2.0 | 81.4
PEPTIDE1{E.T.F.D.P.M.K.V.P.D.H.S.D.K}$$$$V2.0 | 91.7
PEPTIDE1{E.T.F.D.P.M.K.V.P.D.H.S.D}$$$$V2.0 | 84.7
PEPTIDE1{E.Y.I.Q.H.N.G.V.V.Q.E.S.Y}$$$$V2.0 | 77.5
PEPTIDE1{H.I.G.I.I.D.L.K.G.E.L.D.M.R.N}$$$$V2.0 | 66.4
PEPTIDE1{I.D.L.K.G.E.L.D.M.R.N.I.Q.V.R}$$$$V2.0 | 85.2

Substance | purity (crude or final not stated) [%]
PEPTIDE1{I.G.I.K.D.L.D.A.F.R.H.Y.D}$$$$V2.0 | 77.6
PEPTIDE1{K.A.V.D.E.A.V.A.A.I.E.K.S}$$$$V2.0 | 86.8
PEPTIDE1{K.D.L.D.A.F.R.H.Y.D.G.R.T}$$$$V2.0 | 72.9
PEPTIDE1{K.R.V.G.D.A.N.V.K.S.E.D.G}$$$$V2.0 | 82.9
PEPTIDE1{K.S.E.T.F.D.P.M.K.V.P.D.H.S.D}$$$$V2.0 | 92.5
PEPTIDE1{N.K.I.R.E.A.L.A.Q.T.H.S.A}$$$$V2.0 | 87.6
PEPTIDE1{N.S.V.N.V.P.S.E.L.D.L.R.S.L.R.T}$$$$V2.0 | 74.5
PEPTIDE1{P.N.V.N.K.I.R.E.A.L.A.Q.T}$$$$V2.0 | 88.6
PEPTIDE1{R.N.S.W.D.T.N.W.G.D.N.G.Y.G}$$$$V2.0 | 70.0
PEPTIDE1{R.T.I.I.Q.R.D.N.G.Y.Q.P.N.Y}$$$$V2.0 | 70.7
REALAQTHSAIAVI | 69.6
RGKPFQLEAVFEANQNT | 82.6
RGLKQMKRVGDAN | 84.0
RNIQVRGLKQMKRVG | 74.7
RNQSLDLAEQELVDCASQH | 60.1
RTVTPIRMQGGCG | 79.6
RYVAREQSCRRPN | 79.7
TAIFQDTVRAEMTK | 79.1
VSMEYDLAYKLGDLH | 66.9
